Measurements reported in PubChem BioAssay AID504793 (Drosophila RNAi Screening Center, 2011).
In all, the deposit lists about 23,000 reagents; shown is a random part of those with a known target gene and a result. Over the whole deposit, 62 (0.27%) were called active. 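Calls come from follow-up tests whose scores are not deposited, so confirmed genes may have low counts here; counts are not normalised per plate.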 The raw values are shown without normalisation. Entries without a mark were called inactive. The numbers tell different reagents against one gene apart. Names joined by + are all predicted targets of the reagent.

Purpose: 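Whole-genome screen for parts of the DNA damage checkpoint at G2/M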 (primary screen)
Cell system: Drosophila S2R+ cells
Knock-down reagent: long dsRNA against Drosophila genes, about 0.25 µg dsRNA per well
Time to read-out: 4 days of dsRNA, then 4 hours of drug before read-out
Treatment: doxorubicin 0.5 µM for 4 hours to cause double-strand breaks, in cells also given a low, harmless dose of dsRNA against nbs to sensitise the assay
Measured: 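Mitotic index as the number of phospho-histone H3-positive cells in each well following doxorubicin, given as raw counts without normalisation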
Reading the numbers: mitotic cells: higher = more cells in mitosis, weaker G2 arrest
Rule for the call: 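Genes are called active only when high mitotic counts were reproduced with independent dsRNAs and mitosis was checked for delay without damage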
Meaning of the calls: active = confirmed in follow-up tests; inactive = not confirmed

mitotic cells, replicate 1, by gene and reagent
Tsen2: #1 8; #2 1
tant: #1 2
Cpr62Bb: #1 9; #2 3
CG13070: #1 13
mRpL43: #1 8; #2 11
Gclm: #1 9; #2 6
Rab1: #1 11; #2 2
CG4101: #1 3
Flacc: #1 8; #2 2
CG14300: #1 12
fred: #1 4; #2 10; #3 3; #4 3; #5 14
CG7991: #1 3; #2 8
Vha26: #1 6; #2 10
angel: #1 8; #2 13
CG31793: #1 5; #2 5
Pect: #1 5; #2 2
amx: #1 4
RluA-2: #1 10
CG6951: #1 5
Membrin: #1 7
Kr: #1 7
CG8564: #1 6
mus101: #1 26 (active)
CG6044: #1 5
Fad2: #1 8; #2 9
Poc1: #1 2; #2 3
Smu1: #1 5
CG8360: #1 11; #2 9
5-HT7: #1 4; #2 5
Sap47: #1 6; #2 7
Ugt37C1: #1 5; #2 4
X11Lbeta: #1 5; #2 11; #3 4
Mal-B2: #1 5
Ugt303B2: #1 7; #2 9
CG1316: #1 8
CG11883: #1 10
S-Lap2: #1 2
Tcs3: #1 4; #2 15
eIF5: #1 7
Vang: #1 2
Dhx15: #1 10; #2 5
CG46339: #1 4; #2 5
CG14000 + bchs: #1 4
Elp6: #1 7
CG17612: #1 8; #2 5
dpr1: #1 4
brat: #1 5; #2 10
Kdm5: #1 2; #2 4
CG7950 + Rpp14a: #1 12; #2 1
RpS5b: #1 6
Mms19: #1 2; #2 8
CG13725: #1 10
Toll-4: #1 4
CG15012: #1 4
CG13068: #1 8; #2 10
rec: #1 7; #2 7
CG5910: #1 1
mdu: #1 10; #2 3
Ire1: #1 10
yellow-e: #1 5; #2 8
CG31054 (retired record) + CG4849: #1 8
DppIII: #1 6; #2 4
CG12395: #1 15
Hgsnat: #1 3; #2 3
CG42269: #1 9; #2 5; #3 8; #4 7
CG32115: #1 6
CSN1b: #1 5 (active)
CG3927: #1 2; #2 11
